Results as given in paper PMC7175337.
These are yes or no findings as the source states them, for the method shown. Some results given as binding are weak or reduced against the parent protein; the word gives no strength.

Chains of the proteins cited; added tags and fusions are not shown. Residues count along the entry.
UniProt P36544, residues 23-502: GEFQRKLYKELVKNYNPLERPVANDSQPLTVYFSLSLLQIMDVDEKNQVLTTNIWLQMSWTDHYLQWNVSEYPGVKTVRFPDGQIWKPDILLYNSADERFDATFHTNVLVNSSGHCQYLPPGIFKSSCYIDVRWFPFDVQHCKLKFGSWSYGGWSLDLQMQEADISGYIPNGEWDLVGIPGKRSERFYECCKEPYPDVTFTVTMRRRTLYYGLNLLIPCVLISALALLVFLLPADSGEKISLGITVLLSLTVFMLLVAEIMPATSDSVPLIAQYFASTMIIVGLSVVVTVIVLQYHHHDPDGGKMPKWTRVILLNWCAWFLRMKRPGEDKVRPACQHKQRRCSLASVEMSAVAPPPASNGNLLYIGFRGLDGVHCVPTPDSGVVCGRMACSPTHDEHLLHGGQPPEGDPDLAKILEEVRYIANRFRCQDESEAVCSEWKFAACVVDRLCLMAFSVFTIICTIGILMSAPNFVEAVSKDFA
UniProt Q05941, residues 23-502: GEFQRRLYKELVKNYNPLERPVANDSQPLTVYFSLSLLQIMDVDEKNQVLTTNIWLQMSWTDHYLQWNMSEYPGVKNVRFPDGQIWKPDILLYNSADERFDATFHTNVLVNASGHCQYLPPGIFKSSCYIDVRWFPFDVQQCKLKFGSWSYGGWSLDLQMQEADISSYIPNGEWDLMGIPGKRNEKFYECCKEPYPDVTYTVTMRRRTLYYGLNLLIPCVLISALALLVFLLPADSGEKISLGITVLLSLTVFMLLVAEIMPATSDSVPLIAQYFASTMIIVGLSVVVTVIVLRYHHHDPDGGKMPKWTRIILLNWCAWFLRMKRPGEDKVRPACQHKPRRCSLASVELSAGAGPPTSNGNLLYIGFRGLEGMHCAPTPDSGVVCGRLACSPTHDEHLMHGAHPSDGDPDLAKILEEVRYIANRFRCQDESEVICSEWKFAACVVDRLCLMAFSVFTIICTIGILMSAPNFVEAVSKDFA
UniProt P60615, residues 22-95: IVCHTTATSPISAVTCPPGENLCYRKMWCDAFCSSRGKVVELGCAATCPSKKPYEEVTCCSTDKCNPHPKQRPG

Columns and labels:
Human α7nAChR (human) = Human α7nAChR (human) (UniProt P36544); assay: radioligand binding; only the binder purified
Rat α7nAChR (rat) = Rat α7nAChR (rat) (UniProt Q05941); assay: radioligand binding; only the binder purified

In the case of “α-Bungarotoxin (from UniProt P60615 22-95) (ligand)”, the binding (Human α7nAChR (human)) is reported as “binds” and the binding (Rat α7nAChR (rat)) is reported as “binds”.
